These results are taken from the supplement of paper PMC3682954.

For this assay, the system named is RAW 264.7. Briefly: HMGB1-induced TNF-alpha production relative to HMGB1-stimulated control; higher = more TNF-alpha secretion (less inhibition). To be noted: stimulus: HMGB1 5 ug/ml, 18 h.
Setting [1] is: compound concentration: 1 ug/ml.

Structures are written as SMILES. Where “and” joins values, the source holds several entries; their conditions need not be identical. Identical values can stand only once. Counter-ions that a name gives are not always drawn. ± gives the standard deviation of the averaged measurements. The list shows a part of the results. Many values rest on one well or one pass, so single values are uncertain.

As to `C[C@]12CC[C@@H]3c4ccc(O)cc4CC[C@H]3[C@@H]1C[C@@H](O)[C@@H]2O` [Estriol], the “HMGB1-induced TNF-alpha production” value (compound concentration: 3 uM) was determined as 111 ± 22%.

With `C[C@]12CC[C@@H]3c4ccc(O)cc4CC[C@H]3[C@@H]1C[C@@H](O)[C@@H]2O`, the “HMGB1-induced TNF-alpha production” value (compound concentration: 3 uM) amounted to 83.9%.

As for `OC1CCN2Cc3ccccc3N=C12` (configuration not stated) [Peganine], the “HMGB1-induced TNF-alpha production” value under setting [1] stood at 74.2%.

`CCCCC(=O)O[C@]1(C(=O)CO)CC[C@H]2[C@@H]3CCC4=CC(=O)CC[C@]4(C)[C@H]3[C@@H](O)C[C@@]21C`: the “HMGB1-induced TNF-alpha production” value (compound concentration: 3 uM) was 47.7%.

As for `CCCCC(=O)O[C@]1(C(=O)CO)CC[C@H]2[C@@H]3CCC4=CC(=O)CC[C@]4(C)[C@H]3[C@@H](O)C[C@@]21C` [Hydrocortisone 17-valerate], the “HMGB1-induced TNF-alpha production” value under setting [1] came out at 37.4%.

In the case of `CCc1cccc2c3c([nH]c12)C(CC)(CC(=O)O)OCC3` (configuration not stated), the “HMGB1-induced TNF-alpha production” value (compound concentration: 3 uM) is 98.2%.

Consider `CCc1cccc2c3c([nH]c12)C(CC)(CC(=O)O)OCC3` (configuration not stated) [Etodolac], for which, for the setting “compound concentration: 3 uM”, the “HMGB1-induced TNF-alpha production” value was 102 ± 4%.

Consider `Cc1noc(NS(=O)(=O)c2ccc(N)cc2)c1C` [Sulfisoxazole], for which the “HMGB1-induced TNF-alpha production” value (compound concentration: 3 uM) is 63.7%.

In the case of `Cc1noc(NS(=O)(=O)c2ccc(N)cc2)c1C`, under “compound concentration: 3 uM”, the “HMGB1-induced TNF-alpha production” value stood at 52%.

Regarding `CC[N+](CC)(CC)CCC(O)(c1ccccc1)C1CCCCC1` (configuration not stated) [Tridihexethyl chloride], the “HMGB1-induced TNF-alpha production” value (compound concentration: 3 uM) was found to be 153%.

With `O=C1NCC=C2c3cccc(Cl)c3NC12` (configuration not stated) [8-Chlro-1-tetrahydronorharmanone], under setting [1], the “HMGB1-induced TNF-alpha production” value came to 94%.

In the case of `OCCOCCN1CCN(C(c2ccccc2)c2ccc(Cl)cc2)CC1` (configuration not stated), the “HMGB1-induced TNF-alpha production” value (compound concentration: 3 uM) came out at 99%.

For `OCCOCCN1CCN(C(c2ccccc2)c2ccc(Cl)cc2)CC1` (configuration not stated) [Hydroxyzine dihydrochloride], the “HMGB1-induced TNF-alpha production” value (compound concentration: 3 uM) stood at 77.4%.

For the molecule `C=CC1=C(C(=O)O)N2C(=O)[C@@H](NC(=O)/C(=N\OCC(=O)O)c3csc(N)n3)[C@H]2SC1`, the “HMGB1-induced TNF-alpha production” value (compound concentration: 3 uM) stood at 83.9%.

As for `C=CC1=C(C(=O)O)N2C(=O)[C@@H](NC(=O)/C(=N\OCC(=O)O)c3csc(N)n3)[C@H]2SC1` [Cefixime], for the setting “compound concentration: 3 uM”, the “HMGB1-induced TNF-alpha production” value was 78.1%.

For the molecule `Cc1cc(-n2c(=O)[nH]c(=O)n(C)c2=O)ccc1Oc1ccc(SC(F)(F)F)cc1` [Toltrazuril], the “HMGB1-induced TNF-alpha production” value (compound concentration: 3 uM) amounted to 103 ± 36%.

Turning to `Cc1cc(-n2c(=O)[nH]c(=O)n(C)c2=O)ccc1Oc1ccc(SC(F)(F)F)cc1`, for the setting “compound concentration: 3 uM”, the “HMGB1-induced TNF-alpha production” value was determined as 93.8%.

For the molecule `CCCn1c(=O)c2[nH]c(-c3ccc(S(=O)(=O)O)cc3)nc2n(CCC)c1=O` [1,3-Dipropyl-8-p-sulfophenylxanthine], the “HMGB1-induced TNF-alpha production” value (compound concentration: 3 uM) is 96.5%.

With `Cc1ccccc1N1C(=O)c2cc(S(N)(=O)=O)c(Cl)cc2NC1C` (configuration not stated) [Metolazone], the “HMGB1-induced TNF-alpha production” value (compound concentration: 3 uM) is 87.8 ± 20%.

Turning to `Cc1ccccc1N1C(=O)c2cc(S(N)(=O)=O)c(Cl)cc2NC1C` (configuration not stated), the “HMGB1-induced TNF-alpha production” value (compound concentration: 3 uM) was 93.4%.

For the molecule `CC(=O)Nc1nc2nc[nH]c2c(=O)[nH]1` [N-2-Acetylguanine], the “HMGB1-induced TNF-alpha production” value under setting [1] turned out to be 75.2%.

Take `CN(C)CCC(c1ccc(Br)cc1)c1ccccn1` (racemic) [(±)-Brompheniramine maleate]: the “HMGB1-induced TNF-alpha production” value (compound concentration: 3 uM) was found to be 93.8%.

For the molecule `O=C1N(c2ccccc2)c2ccccc2C1(Cc1ccncc1)Cc1ccncc1` [Linopirdine], the “HMGB1-induced TNF-alpha production” value (compound concentration: 3 uM) was 106%.

For `O=C1N(c2ccccc2)c2ccccc2C1(Cc1ccncc1)Cc1ccncc1`, the “HMGB1-induced TNF-alpha production” value (compound concentration: 3 uM) came out at 70.4%.

Regarding `COc1ccc2[nH]c([S+]([O-])Cc3ncc(C)c(OC)c3C)nc2c1` (configuration not stated), the “HMGB1-induced TNF-alpha production” value (compound concentration: 3 uM) was 91.3% and 99.6%.

Take `COc1ccc2[nH]c([S+]([O-])Cc3ncc(C)c(OC)c3C)nc2c1` (configuration not stated) [Omeprazole]: the “HMGB1-induced TNF-alpha production” value (compound concentration: 3 uM) is 74.3 ± 12%.

For `COc1cccc(C(=O)NNC2OC(CO)C(O)C2O)c1` (configuration not stated), under setting [1], the “HMGB1-induced TNF-alpha production” value came out at 68.5%.

For `CC(=O)Oc1ccc(-c2coc3cc(OC4OC(COC5OCC(OC(C)=O)C(OC(C)=O)C5OC(C)=O)C(OC(C)=O)C(OC(C)=O)C4OC(C)=O)cc(OC(C)=O)c3c2=O)cc1` (configuration not stated) [Genistein -7-O-Glc-Xyl, Acetate], the “HMGB1-induced TNF-alpha production” value under setting [1] came to 83.2%.

Turning to `CC(=O)Nc1ccc(O)cc1` [Acetaminophen], the “HMGB1-induced TNF-alpha production” value (compound concentration: 3 uM) came to 106%.

On to `CC(=O)Nc1ccc(O)cc1`, for which the “HMGB1-induced TNF-alpha production” value (compound concentration: 3 uM) was found to be 78.9%.

With `CC(=O)Oc1c(C)c(C)c2c(c1C)CCC(C)(CCCC(C)CCCC(C)CCCC(C)C)O2` (stereo not drawn) [alpha-TOCHOPHERYL ACETATE], the “HMGB1-induced TNF-alpha production” value (compound concentration: 3 uM) came out at 82.3%.

As for `Nc1nc(SCc2ccc([N+](=O)[O-])cc2)c2ncn([C@@H]3O[C@H](CO)[C@H](O)C3O)c2n1` (stereo partly drawn) [S-(4-Nitrobenzyl)-6-thioguanosine], the “HMGB1-induced TNF-alpha production” value (compound concentration: 3 uM) turned out to be 83.4%.

As for `COc1cc(C(=O)NC2CCCNC2)cc(OC)c1OC` (configuration not stated), the “HMGB1-induced TNF-alpha production” value (compound concentration: 3 uM) was 139%.

Regarding `C[C@]12CC[C@@H]3c4ccc(O)cc4CC[C@H]3[C@@H]1CCC2=O` [Estrone], under “compound concentration: 3 uM”, the “HMGB1-induced TNF-alpha production” value amounted to 77 ± 2%.

For the molecule `C[C@]12CC[C@@H]3c4ccc(O)cc4CC[C@H]3[C@@H]1CCC2=O`, the “HMGB1-induced TNF-alpha production” value (compound concentration: 3 uM) turned out to be 81.5%.

Consider `CCCCCCCC/C=C\CCCCCCCC(=O)NCCc1ccc(O)c(O)c1` [N-Oleoyldopamine], for which the “HMGB1-induced TNF-alpha production” value (compound concentration: 3 uM) is 158%.

For `CN(C)[C@@H]1C(O)=C(C(N)=O)C(=O)[C@@]2(O)C(O)=C3C(=O)c4c(O)ccc(Cl)c4[C@@](C)(O)[C@H]3C[C@@H]12` [Chlortetracycline hydrochloride], the “HMGB1-induced TNF-alpha production” value (compound concentration: 3 uM) was 68.7%.

In the case of `CN(C)[C@@H]1C(O)=C(C(N)=O)C(=O)[C@@]2(O)C(O)=C3C(=O)c4c(O)ccc(Cl)c4[C@@](C)(O)[C@H]3C[C@@H]12`, the “HMGB1-induced TNF-alpha production” value (compound concentration: 3 uM) came to 86.9 ± 11%.

Regarding `COc1ccccc1-c1cc(=O)c2cc(O)ccc2o1`, under setting [1], the “HMGB1-induced TNF-alpha production” value was 70.1%.

For the molecule `O=C1OC2(c3ccc(O)cc3Oc3cc(O)ccc32)c2ccccc21`, the “HMGB1-induced TNF-alpha production” value (compound concentration: 3 uM) is 96.6%.

For `CC(=O)N(CC(C)C(=O)O)c1c(I)cc(I)c(N)c1I` (configuration not stated) [Iocetamic acid], the “HMGB1-induced TNF-alpha production” value (compound concentration: 3 uM) turned out to be 100%.

On to `CC(=O)OCC1=C(C(=O)O)N2C(=O)[C@@H](NC(=O)CSc3ccncc3)[C@H]2SC1`, for which the “HMGB1-induced TNF-alpha production” value (compound concentration: 3 uM) came to 86.7%.

As to `CC(=O)OCC1=C(C(=O)O)N2C(=O)[C@@H](NC(=O)CSc3ccncc3)[C@H]2SC1` [Cephapirin sodium salt], the “HMGB1-induced TNF-alpha production” value under setting [1] is 73.3%.

Take `CC(C)=CCC/C(C)=C/COc1c2occc2cc2ccc(=O)oc12` [Xanthotoxol geranyl ether]: the “HMGB1-induced TNF-alpha production” value under setting [1] was 45.6%.

`COc1cnc(NS(=O)(=O)c2ccc(N)cc2)nc1` [Sulfameter]: the “HMGB1-induced TNF-alpha production” value (compound concentration: 3 uM) is 103%.

For `COc1cnc(NS(=O)(=O)c2ccc(N)cc2)nc1`, the “HMGB1-induced TNF-alpha production” value (compound concentration: 3 uM) amounted to 84.4%.

Turning to `CC(C)Cc1ccc(C(C)C(=O)O)cc1` (racemic) [(±)-Ibuprofen], where the note is “compound concentration: 3 uM”, the “HMGB1-induced TNF-alpha production” value was 103%.

Consider `O=c1oc2c3c4c(cc2c2c1CCC2)CCCN4CCC3` [Coumarin 106], for which, under setting [1], the “HMGB1-induced TNF-alpha production” value is 84.9%.

As to `O=C(O)CCC(=O)Nc1ccc(S(=O)(=O)Nc2nccs2)cc1`, where the note is “compound concentration: 3 uM”, the “HMGB1-induced TNF-alpha production” value came to 77.3%.

Consider `O=C(O)CCC(=O)Nc1ccc(S(=O)(=O)Nc2nccs2)cc1` [Succinylsulfathiazole], for which, where the note is “compound concentration: 3 uM”, the “HMGB1-induced TNF-alpha production” value worked out at 95.7%.

Take `Cc1cccc(CN2CCN(C(c3ccccc3)c3ccc(Cl)cc3)CC2)c1` (configuration not stated) [Meclozine dihydrochloride]: under “compound concentration: 3 uM”, the “HMGB1-induced TNF-alpha production” value stood at 75.7%.

On to `Cc1cccc(CN2CCN(C(c3ccccc3)c3ccc(Cl)cc3)CC2)c1` (configuration not stated), for which the “HMGB1-induced TNF-alpha production” value (compound concentration: 3 uM) is 71.2%.
